From US20110166038A1, “SCREENING METHODS FOR HEAT-SHOCK RESPONSE MODULATORS” (SCREENING METHODS FOR HEAT-SHOCK RESPONSE MODULATIORS, priority 2008, published 2011)
At least one structure is not confirmed: it was looked up by name or label, or the drawing left a doubt.

Key:
HSP70.1 promoter = conditions: HeLa cells, HSP70.1 promoter-luciferase reporter; read-out: previously published EC50, heat shock response; cited from earlier work
HSF1 = HSF1 granule assay in non-stressed (non-heat shocked, 37° C.) cells; format: cell-based; conditions: HeLa, 37° C. for 3 hours, 0.78 μM to 35 μM

Compound: CC1=C(O)C(=O)C=C2C1=CC=C1[C@@]2(C)CC[C@@]2(C)[C@@H]3C[C@](C)(C(=O)O)CC[C@]3(C)CC[C@]12C [celastrol]
- EC50 (HSP70.1 promoter): 3000 nM
- HSF1 positive granule formation in normal (non-heat shocked) cells (HSF1): significantly stimulates HSF1 positive granule formation
